For four molecules, binding results are on record in PMC9935549.

Amino acid sequences for entries named in this document (tags omitted).
UniProt O75533: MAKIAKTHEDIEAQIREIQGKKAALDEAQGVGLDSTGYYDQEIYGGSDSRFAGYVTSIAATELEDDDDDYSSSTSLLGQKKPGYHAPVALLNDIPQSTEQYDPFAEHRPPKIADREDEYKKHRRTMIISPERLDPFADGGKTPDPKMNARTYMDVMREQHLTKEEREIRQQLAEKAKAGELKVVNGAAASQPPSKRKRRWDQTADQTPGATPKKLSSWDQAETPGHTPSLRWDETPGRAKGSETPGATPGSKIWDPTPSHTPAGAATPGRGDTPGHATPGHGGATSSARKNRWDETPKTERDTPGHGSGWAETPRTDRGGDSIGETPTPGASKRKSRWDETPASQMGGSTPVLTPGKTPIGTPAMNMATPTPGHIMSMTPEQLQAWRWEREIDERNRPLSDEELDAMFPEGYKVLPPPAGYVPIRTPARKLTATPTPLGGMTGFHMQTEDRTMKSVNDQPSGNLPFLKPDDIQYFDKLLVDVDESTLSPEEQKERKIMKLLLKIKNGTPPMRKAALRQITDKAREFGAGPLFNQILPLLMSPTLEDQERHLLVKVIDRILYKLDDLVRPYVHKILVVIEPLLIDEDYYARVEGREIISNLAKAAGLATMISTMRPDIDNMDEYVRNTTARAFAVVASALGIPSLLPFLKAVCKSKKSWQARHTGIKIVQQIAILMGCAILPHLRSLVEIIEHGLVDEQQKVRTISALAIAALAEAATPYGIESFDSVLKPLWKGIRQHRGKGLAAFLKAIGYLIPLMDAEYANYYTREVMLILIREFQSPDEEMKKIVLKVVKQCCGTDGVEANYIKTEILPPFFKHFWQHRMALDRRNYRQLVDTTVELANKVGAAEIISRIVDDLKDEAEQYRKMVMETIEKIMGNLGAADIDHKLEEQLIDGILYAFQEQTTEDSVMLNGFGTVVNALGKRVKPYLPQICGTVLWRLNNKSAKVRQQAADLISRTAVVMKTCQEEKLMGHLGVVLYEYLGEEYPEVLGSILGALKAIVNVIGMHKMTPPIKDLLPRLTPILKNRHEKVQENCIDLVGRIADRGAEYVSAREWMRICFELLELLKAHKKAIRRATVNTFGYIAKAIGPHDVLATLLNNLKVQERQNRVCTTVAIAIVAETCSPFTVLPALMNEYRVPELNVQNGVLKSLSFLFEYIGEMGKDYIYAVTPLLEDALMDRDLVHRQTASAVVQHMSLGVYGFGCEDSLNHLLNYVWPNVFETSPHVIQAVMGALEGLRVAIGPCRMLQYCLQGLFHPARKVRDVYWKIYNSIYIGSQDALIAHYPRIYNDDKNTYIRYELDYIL
UniProt O43143: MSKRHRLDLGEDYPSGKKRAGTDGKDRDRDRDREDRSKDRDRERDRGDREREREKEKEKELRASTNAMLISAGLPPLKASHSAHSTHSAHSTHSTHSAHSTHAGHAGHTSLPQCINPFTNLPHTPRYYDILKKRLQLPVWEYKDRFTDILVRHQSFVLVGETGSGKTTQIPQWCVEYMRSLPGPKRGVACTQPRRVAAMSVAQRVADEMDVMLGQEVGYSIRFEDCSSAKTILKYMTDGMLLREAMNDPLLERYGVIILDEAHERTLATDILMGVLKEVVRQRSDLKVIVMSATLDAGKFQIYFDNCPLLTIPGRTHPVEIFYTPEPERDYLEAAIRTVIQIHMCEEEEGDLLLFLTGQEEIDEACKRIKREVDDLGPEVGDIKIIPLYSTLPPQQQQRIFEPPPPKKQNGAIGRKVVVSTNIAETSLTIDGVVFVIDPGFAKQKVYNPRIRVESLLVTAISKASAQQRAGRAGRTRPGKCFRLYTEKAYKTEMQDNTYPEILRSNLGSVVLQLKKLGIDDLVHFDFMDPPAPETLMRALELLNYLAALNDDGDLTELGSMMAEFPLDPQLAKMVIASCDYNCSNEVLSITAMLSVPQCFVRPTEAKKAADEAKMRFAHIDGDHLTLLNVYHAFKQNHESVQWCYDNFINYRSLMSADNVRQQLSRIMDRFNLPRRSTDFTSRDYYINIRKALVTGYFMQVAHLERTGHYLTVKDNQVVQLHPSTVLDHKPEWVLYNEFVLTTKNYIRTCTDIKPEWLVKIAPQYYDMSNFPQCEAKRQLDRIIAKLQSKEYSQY

The target in assay [1] is SF3B1 (endogenous, HEK293F, in the DDX42-U2 complex) (human (endogenous in HEK293F)) (UniProt O75533). Nature of the assay: cryo-EM structure; DDX42-U2 complex: Flag-DDX42 expressed in HEK293F, anti-Flag selection of endogenous complexes, glycerol gradient with 0–0.1% glutaraldehyde; 2.7 Å.
Assay [2] concerns the target T1, Flag-DDX42 (full-length) (human), Q86XP3.
T1 chain: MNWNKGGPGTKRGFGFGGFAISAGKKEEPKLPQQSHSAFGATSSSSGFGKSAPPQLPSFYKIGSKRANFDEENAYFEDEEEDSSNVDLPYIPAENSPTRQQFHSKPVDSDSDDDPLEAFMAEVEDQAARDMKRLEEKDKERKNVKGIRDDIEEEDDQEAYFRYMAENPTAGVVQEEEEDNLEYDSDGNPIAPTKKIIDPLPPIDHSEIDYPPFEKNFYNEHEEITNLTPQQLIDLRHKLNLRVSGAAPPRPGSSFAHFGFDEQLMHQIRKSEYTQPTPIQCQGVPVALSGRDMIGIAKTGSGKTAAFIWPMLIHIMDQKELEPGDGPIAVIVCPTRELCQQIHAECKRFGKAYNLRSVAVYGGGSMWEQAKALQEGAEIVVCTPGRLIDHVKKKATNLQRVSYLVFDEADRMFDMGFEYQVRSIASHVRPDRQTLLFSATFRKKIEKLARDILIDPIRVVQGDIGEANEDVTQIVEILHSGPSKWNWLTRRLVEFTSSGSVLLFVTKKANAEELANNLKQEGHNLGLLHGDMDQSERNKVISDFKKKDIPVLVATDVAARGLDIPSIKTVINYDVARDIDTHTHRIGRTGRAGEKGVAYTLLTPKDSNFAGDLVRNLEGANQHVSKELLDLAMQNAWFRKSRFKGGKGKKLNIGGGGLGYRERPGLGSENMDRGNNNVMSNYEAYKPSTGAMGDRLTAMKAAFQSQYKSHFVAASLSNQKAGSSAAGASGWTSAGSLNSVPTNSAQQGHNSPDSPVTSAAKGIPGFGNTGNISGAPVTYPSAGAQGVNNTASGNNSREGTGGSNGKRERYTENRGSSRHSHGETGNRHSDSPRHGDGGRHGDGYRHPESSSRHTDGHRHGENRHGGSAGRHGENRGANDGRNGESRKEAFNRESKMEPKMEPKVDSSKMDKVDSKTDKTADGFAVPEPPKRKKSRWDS
The description is as above. Conditions: remark: other sources report otherwise.

Assay [3] deals with Flag-DHX15 (full-length) (human) (UniProt O43143). Nature of the assay: cryo-EM structure; DHX15-U2 complex purified by Flag-DHX15 from HeLa; reconstruction of about 5 Å; atomic model of 17S U2 snRNP docked into the low-pass filtered map; DHX15 itself not identified in the map.

Results are given in words; binding and its absence hold for the method and conditions named. Some entries that bind do so weakly or less than the wild type. For some of these results: Where a sequence is shown, tags or fusion partners need not be part of it.

B1: splicing factor TAT-SF1 (endogenous, HEK293F, in the DDX42-U2 complex) (protein, UniProt O43719 1-755)
chain: MSGTNLDGNDEFDEQLRMQELYGDGKDGDTQTDAGGEPDSLGQQPTDTPYEWDLDKKAWFPKITEDFIATYQANYGFSNDGASSSTANVEDVHARTAEEPPQEKAPEPTDARKKGEKRKAESGWFHVEEDRNTNVYVSGLPPDITVDEFIQLMSKFGIIMRDPQTEEFKVKLYKDNQGNLKGDGLCCYLKRESVELALKLLDEDEIRGYKLHVEVAKFQLKGEYDASKKKKKCKDYKKKLSMQQKQLDWRPERRAGPSRMRHERVVIIKNMFHPMDFEDDPLVLNEIREDLRVECSKFGQIRKLLLFDRHPDGVASVSFRDPEEADYCIQTLDGRWFGGRQITAQAWDGTTDYQVEETSREREERLRGWEAFLNAPEANRGLRRSDSVSASERAGPSRARHFSEHPSTSKMNAQETATGMAFEEPIDEKKFEKTEDGGEFEEGASENNAKESSPEKEAEEGCPEKESEEGCPKRGFEGSCSQKESEEGNPVRGSEEDSPKKESKKKTLKNDCEENGLAKESEDDLNKESEEEVGPTKESEEDDSEKESDEDCSEKQSEDGSEREFEENGLEKDLDEEGSEKELHENVLDKELEENDSENSEFEDDGSEKVLDEEGSEREFDEDSDEKEEEEDTYEKVFDDESDEKEDEEYADEKGLEAADKKAEEGDADEKLFEESDDKEDEDADGKEVEDADEKLFEDDDSNEKLFDEEEDSSEKLFDDSDERGTLGGFGSVEEGPLSTGSSFILSSDDDDDDI
Take B1: the binding result in assay [1] is recorded as “binds”.

B2: splicing factor TAT-SF1 (endogenous, HEK293F, in the DDX42-U2 complex), O43719 1-755 (protein)
chain: B1 chain
As to B2, the binding result in assay [2] was “binds”.

B3: TAT-SF1 (endogenous, HeLa, in the DHX15-U2 complex) (protein, UniProt O43719 1-755)
chain: B1 chain
For B3, the binding result in assay [3] is reported as “binds”.

B4: DDX46 (endogenous, HeLa, in the DHX15-U2 complex) (protein, UniProt Q7L014 1-1031)
chain: MGRESRHYRKRSASRGRSGSRSRSRSPSDKRSKRGDDRRSRSRDRDRRRERSRSRDKRRSRSRDRKRLRRSRSRERDRSRERRRSRSRDRRRSRSRSRGRRSRSSSPGNKSKKTENRSRSKEKTDGGESSKEKKKDKDDKEDEKEKDAGNFDQNKLEEEMRKRKERVEKWREEQRKKAMENIGELKKEIEEMKQGKKWSLEDDDDDEDDPAEAEKEGNEMEGEELDPLDAYMEEVKEEVKKFNMRSVKGGGGNEKKSGPTVTKVVTVVTTKKAVVDSDKKKGELMENDQDAMEYSSEEEEVDLQTALTGYQTKQRKLLEPVDHGKIEYEPFRKNFYVEVPELAKMSQEEVNVFRLEMEGITVKGKGCPKPIKSWVQCGISMKILNSLKKHGYEKPTPIQTQAIPAIMSGRDLIGIAKTGSGKTIAFLLPMFRHIMDQRSLEEGEGPIAVIMTPTRELALQITKECKKFSKTLGLRVVCVYGGTGISEQIAELKRGAEIIVCTPGRMIDMLAANSGRVTNLRRVTYVVLDEADRMFDMGFEPQVMRIVDNVRPDRQTVMFSATFPRAMEALARRILSKPIEVQVGGRSVVCSDVEQQVIVIEEEKKFLKLLELLGHYQESGSVIIFVDKQEHADGLLKDLMRASYPCMSLHGGIDQYDRDSIINDFKNGTCKLLVATSVAARGLDVKHLILVVNYSCPNHYEDYVHRAGRTGRAGNKGYAYTFITEDQARYAGDIIKALELSGTAVPPDLEKLWSDFKDQQKAEGKIIKKSSGFSGKGFKFDETEQALANERKKLQKAALGLQDSDDEDAAVDIDEQIESMFNSKKRVKDMAAPGTSSVPAPTAGNAEKLEIAKRLALRINAQKNLGIESQDVMQQATNAILRGGTILAPTVSAKTIAEQLAEKINAKLNYVPLEKQEEERQDGGQNESFKRYEEELEINDFPQTARWKVTSKEALQRISEYSEAAITIRGTYFPPGKEPKEGERKIYLAIESANELAVQKAKAEITRLIKEELIRLQNSYQPTNKGRYKVL
For the molecule B4, in assay [3], the binding result is given as “binds”.
